Test results from the supplement of paper PMC8728848.
The other results are listed elsewhere or left out.

Experiments:
Test in all cases: glycan array binding signal (z-score within array); higher = stronger binding
Conditions in all cases: glycan notation: IUPAC condensed, linker removed
[1] = biological target: Gal3S(b1-3)[Fuc(a1-4)]GlcNAc
Procedure, shortened: (§1)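 Glycan array binding is given as a within-array Z-score, which can be read as non-binding when negative. The arrays, 3228 of them, came from the Consortium for Functional Glycomics database and were retained only where the protein sequence was available. Z-scores were averaged across arrays of the same protein sequence at different concentrations or buffers and across linkers.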

Gal3S(b1-4)Glc = biological target: Gal3S(b1-4)Glc
Procedure, shortened: as §1

Gal3S(b1-4)Glc6S = biological target: Gal3S(b1-4)Glc6S
Procedure, shortened: as §1

Gal3S(b1-4)GlcNAc = biological target: Gal3S(b1-4)GlcNAc
Procedure, shortened: as §1

[2] = biological target: Gal3S(b1-4)[Fuc(a1-3)]Glc6S
Procedure, shortened: as §1

[3] = biological target: Gal3S(b1-4)[Fuc(a1-3)]GlcNAc
Procedure, shortened: as §1

[4] = biological target: Gal3S(b1-4)[Fuc(a1-3)]GlcNAc6S
Procedure, shortened: as §1

Gal3S4S(b1-4)GlcNAc = biological target: Gal3S4S(b1-4)GlcNAc
Procedure, shortened: as §1

Gal3S6S(b1-4)GlcNAc = biological target: Gal3S6S(b1-4)GlcNAc
Procedure, shortened: as §1

Gal3S6S(b1-4)GlcNAc6S = biological target: Gal3S6S(b1-4)GlcNAc6S
Procedure, shortened: as §1

Gal4S(b1-4)GlcNAc = biological target: Gal4S(b1-4)GlcNAc
Procedure, shortened: as §1

Gal4S6S(b1-4)GlcNAc = biological target: Gal4S6S(b1-4)GlcNAc
Procedure, shortened: as §1

Gal6P(b1-4)GlcNAc = biological target: Gal6P(b1-4)GlcNAc
Procedure, shortened: as §1

Gal6S(b1-3)GlcNAc = biological target: Gal6S(b1-3)GlcNAc
Procedure, shortened: as §1

Gal6S(b1-3)GlcNAc6S = biological target: Gal6S(b1-3)GlcNAc6S
Procedure, shortened: as §1

Gal6S(b1-4)Glc = biological target: Gal6S(b1-4)Glc
Procedure, shortened: as §1

Gal6S(b1-4)Glc6S = biological target: Gal6S(b1-4)Glc6S
Procedure, shortened: as §1

Gal6S(b1-4)GlcNAc = biological target: Gal6S(b1-4)GlcNAc
Procedure, shortened: as §1

Gal6S(b1-4)GlcNAc6S = biological target: Gal6S(b1-4)GlcNAc6S
Procedure, shortened: as §1

GalNAc(a1-3)Gal = biological target: GalNAc(a1-3)Gal
Procedure, shortened: as §1

GalNAc(a1-3)GalNAc = biological target: GalNAc(a1-3)GalNAc
Procedure, shortened: as §1

[5] = biological target: GalNAc(a1-3)GalNAc(b1-3)Gal(a1-4)Gal(b1-4)Glc
Procedure, shortened: as §1

[6] = biological target: GalNAc(a1-3)GalNAc(b1-3)Gal(a1-4)Gal(b1-4)GlcNAc
Procedure, shortened: as §1

GalNAc(b1-3)Gal = biological target: GalNAc(b1-3)Gal
Procedure, shortened: as §1

[7] = biological target: GalNAc(b1-3)Gal(a1-4)Gal(b1-4)GlcNAc
Procedure, shortened: as §1

[8] = biological target: GalNAc(b1-3)Gal(a1-4)Gal(b1-4)GlcNAc(b1-3)Gal(b1-4)Glc
Procedure, shortened: as §1

[9] = biological target: GalNAc(b1-3)Gal(a1-6)Gal(b1-4)Glc
Procedure, shortened: as §1

GalNAc(b1-3)GalNAc = biological target: GalNAc(b1-3)GalNAc
Procedure, shortened: as §1

GalNAc(b1-3)GlcNAc = biological target: GalNAc(b1-3)GlcNAc
Procedure, shortened: as §1

GalNAc(b1-4)Gal(b1-4)Glc = biological target: GalNAc(b1-4)Gal(b1-4)Glc
Procedure, shortened: as §1

GalNAc(b1-4)GlcNAc = biological target: GalNAc(b1-4)GlcNAc
Procedure, shortened: as §1

[10] = biological target: GalNAc(b1-4)GlcNAc(b1-2)Man
Procedure, shortened: as §1

[11] = biological target: GalNAc(b1-4)GlcNAc(b1-2)Man(a1-3)[GalNAc(b1-4)GlcNAc(b1-2)Man(a1-6)]Man(b1-4)GlcNAc(b1-4)GlcNAc
Procedure, shortened: as §1

[12] = biological target: GalNAc(b1-4)GlcNAc(b1-3)GalNAc(b1-4)GlcNAc
Procedure, shortened: as §1

GalNAc(b1-4)GlcNAc6S = biological target: GalNAc(b1-4)GlcNAc6S
Procedure, shortened: as §1

GalNAc(b1-6)GalNAc = biological target: GalNAc(b1-6)GalNAc
Procedure, shortened: as §1

GalNAc3S(b1-4)GlcNAc = biological target: GalNAc3S(b1-4)GlcNAc
Procedure, shortened: as §1

GalNAc3S(b1-4)GlcNAc3S = biological target: GalNAc3S(b1-4)GlcNAc3S
Procedure, shortened: as §1

[13] = biological target: GalNAc3S(b1-4)[Fuc(a1-3)]GlcNAc
Procedure, shortened: as §1

GalNAc4S6S(b1-4)GlcNAc = biological target: GalNAc4S6S(b1-4)GlcNAc
Procedure, shortened: as §1

GalNAc6S(b1-4)GlcNAc = biological target: GalNAc6S(b1-4)GlcNAc
Procedure, shortened: as §1

Glc(a1-4)Glc = biological target: Glc(a1-4)Glc
Procedure, shortened: as §1

[14] = biological target: Glc(a1-4)Glc(a1-4)Glc(a1-4)Glc
Procedure, shortened: as §1

Glc(a1-6)Glc(a1-6)Glc = biological target: Glc(a1-6)Glc(a1-6)Glc
Procedure, shortened: as §1

[15] = biological target: Glc(a1-6)Glc(a1-6)Glc(a1-6)Glc
Procedure, shortened: as §1

Glc(b1-4)Glc = biological target: Glc(b1-4)Glc
Procedure, shortened: as §1

Glc(b1-6)Glc = biological target: Glc(b1-6)Glc
Procedure, shortened: as §1

GlcA(b1-3)Gal = biological target: GlcA(b1-3)Gal
Procedure, shortened: as §1

GlcA(b1-3)GlcNAc = biological target: GlcA(b1-3)GlcNAc
Procedure, shortened: as §1

GlcA(b1-6)Gal = biological target: GlcA(b1-6)Gal
Procedure, shortened: as §1

[16] = biological target: GlcA3S(b1-3)Gal(b1-4)GlcNAc(b1-2)Man
Procedure, shortened: as §1

[17] = biological target: GlcA3S(b1-3)Gal(b1-4)GlcNAc(b1-3)Gal(b1-4)Glc
Procedure, shortened: as §1

[18] = biological target: GlcNAc(a1-3)Gal(b1-4)GlcNAc
Procedure, shortened: as §1

[19] = biological target: GlcNAc(a1-4)Gal(b1-3)GlcNAc
Procedure, shortened: as §1

[20] = biological target: GlcNAc(a1-4)Gal(b1-4)GalNAc
Procedure, shortened: as §1

[21] = biological target: GlcNAc(a1-4)Gal(b1-4)GlcNAc
Procedure, shortened: as §1

[22] = biological target: GlcNAc(a1-4)Gal(b1-4)GlcNAc(b1-3)Gal(b1-4)Glc
Procedure, shortened: as §1

[23] = biological target: GlcNAc(a1-4)Gal(b1-4)GlcNAc(b1-3)Gal(b1-4)GlcNAc
Procedure, shortened: as §1

[24] = biological target: GlcNAc(a1-4)Gal(b1-4)GlcNAc(b1-3)Gal(b1-4)GlcNAc(b1-3)Gal(b1-4)GlcNAc
Procedure, shortened: as §1

[25] = biological target: GlcNAc(a1-4)Gal(b1-4)GlcNAc(b1-3)Gal(b1-4)[Fuc(a1-3)]GlcNAc(b1-3)Gal(b1-4)[Fuc(a1-3)]GlcNAc
Procedure, shortened: as §1

B1: CcfD (Bacteroides fragilis), Q5L9G4 (protein)
chain: MKKQNSIYTLLIALLCFVSSCDYLGVSDQLAGGLQNTEQVFDNVSYTKRWYANVFAGIPDYSGINSVNVGAFKNPWTGMCDELVVGYGNSSKYNNSDRNAANMGFHRYGDCYKYIRQANIFLQKAHPIMTTGTQGDQLLEDELTQMKANVRFMRAFYHYLLFEQYGPIILVKDKIYNATEDQDVPRNTVDEVIEYIDSELTAVASELTQEPIFEDKDYRAWPTKGVALAVRAKLWLYAASPLLNGGYREALSVTNPDGTRLFPDYDAGKWEKALAACKDFIDYAEAGRYELYKEYKDDNGAVIDPDKSVYNLFQKYTHEIIWATANNDWGGMNGDAFDRRIAPRCEKNGLGSTGVTQELVDAFYMKDGFPVSATAYLPQSTLYQEEGYGTYKDQNDNFSKKYTNVTVSNRYLNREPRFYNTVFFNGRQWPVSCNQVLFYNGGNSGVQEGQATLTGYMLFKRFNRSVSLTNPGVASQFRPSIIFRLADFYLMYAEAANEVNPNDARVLKYLNLVRERAGLPDIETLNPAIRGNQELQRAAIQRERQIELATEGQRYFDVRRWMIADKNGEGRQNGYVHGMNVRGESNDKEDFNRIVEASQIVFNRKMYLYPMPDSEMRKTKNLVQNPGW
[1]
  glycan array binding signal (z-score): 1.03
Gal3S(b1-4)Glc
  glycan array binding signal (z-score): 0.864
Gal3S(b1-4)Glc6S
  glycan array binding signal (z-score): 0.322
Gal3S(b1-4)GlcNAc
  glycan array binding signal (z-score): 0.21
[2]
  glycan array binding signal (z-score): 0.213
[3]
  glycan array binding signal (z-score): 0.135
[4]
  glycan array binding signal (z-score): 1.44
Gal3S4S(b1-4)GlcNAc
  glycan array binding signal (z-score): -0.542
Gal3S6S(b1-4)GlcNAc
  glycan array binding signal (z-score): 1.15
Gal3S6S(b1-4)GlcNAc6S
  glycan array binding signal (z-score): -0.069
Gal4S(b1-4)GlcNAc
  glycan array binding signal (z-score): -0.87
Gal4S6S(b1-4)GlcNAc
  glycan array binding signal (z-score): -0.076
Gal6P(b1-4)GlcNAc
  glycan array binding signal (z-score): -0.923
Gal6S(b1-3)GlcNAc
  glycan array binding signal (z-score): 1.26
Gal6S(b1-3)GlcNAc6S
  glycan array binding signal (z-score): 0.082
Gal6S(b1-4)Glc
  glycan array binding signal (z-score): -0.01
Gal6S(b1-4)Glc6S
  glycan array binding signal (z-score): -0.319
Gal6S(b1-4)GlcNAc
  glycan array binding signal (z-score): -0.148
Gal6S(b1-4)GlcNAc6S
  glycan array binding signal (z-score): 1.06
GalNAc(a1-3)Gal
  glycan array binding signal (z-score): -0.049
GalNAc(a1-3)GalNAc
  glycan array binding signal (z-score): -0.319
[5]
  glycan array binding signal (z-score): 0.266
[6]
  glycan array binding signal (z-score): 1.74
GalNAc(b1-3)Gal
  glycan array binding signal (z-score): -0.64
[7]
  glycan array binding signal (z-score): 1.46
[8]
  glycan array binding signal (z-score): -0.135
[9]
  glycan array binding signal (z-score): -0.64
GalNAc(b1-3)GalNAc
  glycan array binding signal (z-score): -0.404
GalNAc(b1-3)GlcNAc
  glycan array binding signal (z-score): 0.502
GalNAc(b1-4)Gal(b1-4)Glc
  glycan array binding signal (z-score): -0.384
GalNAc(b1-4)GlcNAc
  glycan array binding signal (z-score): 0.824
[10]
  glycan array binding signal (z-score): -0.805
[11]
  glycan array binding signal (z-score): -0.942
[12]
  glycan array binding signal (z-score): 0.437
GalNAc(b1-4)GlcNAc6S
  glycan array binding signal (z-score): 0.299
GalNAc(b1-6)GalNAc
  glycan array binding signal (z-score): 0.364
GalNAc3S(b1-4)GlcNAc
  glycan array binding signal (z-score): -0.292
GalNAc3S(b1-4)GlcNAc3S
  glycan array binding signal (z-score): -0.562
[13]
  glycan array binding signal (z-score): 0.424
GalNAc4S6S(b1-4)GlcNAc
  glycan array binding signal (z-score): 1.77
GalNAc6S(b1-4)GlcNAc
  glycan array binding signal (z-score): 1.12
Glc(a1-4)Glc
  glycan array binding signal (z-score): 0.131
[14]
  glycan array binding signal (z-score): 1.18
Glc(a1-6)Glc(a1-6)Glc
  glycan array binding signal (z-score): -0.502
[15]
  glycan array binding signal (z-score): 0.095
Glc(b1-4)Glc
  glycan array binding signal (z-score): 1.59
Glc(b1-6)Glc
  glycan array binding signal (z-score): -0.266
GlcA(b1-3)Gal
  glycan array binding signal (z-score): -0.555
GlcA(b1-3)GlcNAc
  glycan array binding signal (z-score): -0.233
GlcA(b1-6)Gal
  glycan array binding signal (z-score): -0.456
[16]
  glycan array binding signal (z-score): 0.312
[17]
  glycan array binding signal (z-score): 0.923
[18]
  glycan array binding signal (z-score): -0.864
[19]
  glycan array binding signal (z-score): 0.496
[20]
  glycan array binding signal (z-score): -0.588
[21]
  glycan array binding signal (z-score): -0.365
[22]
  glycan array binding signal (z-score): -0.509
[23]
  glycan array binding signal (z-score): -0.634
[24]
  glycan array binding signal (z-score): -0.896
[25]
  glycan array binding signal (z-score): -0.969
